The text below walks through data of patent KR20220160483A.

Assay [1] has as its target T1, 재조합 인간 ASM(acid sphingomyelinase) 단백질 (human) (UniProt P17405).
T1 sequence: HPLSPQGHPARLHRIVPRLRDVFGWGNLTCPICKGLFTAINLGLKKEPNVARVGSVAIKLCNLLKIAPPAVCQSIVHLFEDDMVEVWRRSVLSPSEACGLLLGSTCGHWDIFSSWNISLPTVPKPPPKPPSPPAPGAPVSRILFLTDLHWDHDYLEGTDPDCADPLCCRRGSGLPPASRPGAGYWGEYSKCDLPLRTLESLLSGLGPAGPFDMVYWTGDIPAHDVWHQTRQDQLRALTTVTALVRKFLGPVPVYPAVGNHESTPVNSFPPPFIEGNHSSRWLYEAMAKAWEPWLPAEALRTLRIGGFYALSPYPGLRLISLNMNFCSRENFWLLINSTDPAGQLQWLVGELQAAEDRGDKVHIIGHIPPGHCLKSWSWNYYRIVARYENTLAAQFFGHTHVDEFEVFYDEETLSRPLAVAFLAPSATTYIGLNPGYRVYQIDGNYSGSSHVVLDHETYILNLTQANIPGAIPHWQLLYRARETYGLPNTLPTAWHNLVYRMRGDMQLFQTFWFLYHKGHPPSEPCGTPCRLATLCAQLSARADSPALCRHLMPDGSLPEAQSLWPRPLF
Kind of assay: HDX-MS epitope mapping.

The target in assay [2] is T1, 재조합 인간 ASM(acid sphingomyelinase) 단백질 (human). Briefly: ELISA on recombinant human ASM. On the technique in general: An ELISA detects its analyte on a solid surface through an enzyme-linked reagent.
In assay [3] the target is T2, 재조합 마우스 ASM(acid sphingomyelinase) 단백질 (mouse) (UniProt Q04519).
T2 sequence: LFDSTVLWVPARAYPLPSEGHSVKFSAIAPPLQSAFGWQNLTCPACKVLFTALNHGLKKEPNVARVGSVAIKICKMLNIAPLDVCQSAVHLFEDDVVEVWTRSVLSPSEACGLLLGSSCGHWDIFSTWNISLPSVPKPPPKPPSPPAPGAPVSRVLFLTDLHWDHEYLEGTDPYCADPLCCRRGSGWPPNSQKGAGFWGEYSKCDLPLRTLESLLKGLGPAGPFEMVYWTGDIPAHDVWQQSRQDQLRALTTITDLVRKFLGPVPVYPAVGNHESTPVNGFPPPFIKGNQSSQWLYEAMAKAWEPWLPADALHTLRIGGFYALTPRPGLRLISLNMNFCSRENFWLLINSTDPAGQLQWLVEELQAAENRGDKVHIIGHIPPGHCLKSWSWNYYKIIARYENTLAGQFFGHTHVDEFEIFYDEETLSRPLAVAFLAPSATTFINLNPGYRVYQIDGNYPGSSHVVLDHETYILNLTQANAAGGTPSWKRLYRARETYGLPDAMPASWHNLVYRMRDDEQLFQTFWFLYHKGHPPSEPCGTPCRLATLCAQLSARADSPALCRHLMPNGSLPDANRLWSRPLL
Briefly: BLI (Octet QK384), mouse ASM on AR2G sensor; RMax 0.0185, Full R2 0.5527. On the technique in general: BLI is a label-free optical method that tracks binding on a fibre tip over time.

In assay [4] the target is T1, 재조합 인간 ASM(acid sphingomyelinase) 단백질 (human). Briefly: BLI (Octet QK384).
Assay [5] concerns the target T2, 재조합 마우스 ASM(acid sphingomyelinase) 단백질 (mouse). Briefly: BLI (Octet QK384), mouse ASM on AR2G sensor; RMax 0, Full R2 0.
Assay [6] has the same target. Briefly: BLI (Octet QK384).

Numbering of substitutions follows the chain as printed. No constants are given. Whether binding was seen depends on the method and setting. Some binding calls cover weakened binding; strength is not graded here.

B1: #9101 항체 (antibody, mouse IgG1, V domains shown)
VH: EVQLLESGGGLVQPGGSLRLSCAASGFTFSNYAMSWVRQAPGKGLEWVSGIYPNGGNKYYADSVKGRFTISRDNSKNTLYLQMNSLRAEDTAVYYCAKNAYRFDYWGQGTLVTVSS
VL: QSVLTQPPSASGTPGQRVTISCSGSSSNIGNNYVSWYQQLPGTAPKLLIYADSKRPSGVPDRFSGSKSGTSASLAIGGLRSEDEADYYCGSWDYSLNAYVFGGGTKLTVLG
Consider B1, for which the binding entry is recorded as “binds” in assay [1], “binds” in assay [2], “no binding (tested: 10 nM)” in assay [3] and “binds” in assay [4].

B2: #9113 항체 (antibody, mouse IgG1, V domains shown)
VH: EVQLLESGGGLVQPGGSLRLSCAASGFTFSSYYMSWVRQAPGKGLEWVSSISPGGSSIYYADSVKGRFTISRDNSKNTLYLQMNSLRAEDTAVYYCAKGASLFDYWGQGTLVTVSS
VL: B1 VL with Y33A, A51S, S53N, G77S, S91T, Y94A
As for B2, the results for the binding entry in assay [1], in assay [4] and in assay [5] were “binds”, “binds” and “no binding (tested: 10 nM)”, respectively.

B3: #9104 항체 (antibody, mouse IgG1, V domains shown)
VH: B1 VH with A33Y, P53Y, N54G, G55S, K58I, K98R, N99D, A100T, Y101P, R102G
VL: B1 VL with S23T, Y33A, S35N, A51Y, K54H, G77S, S91A, N97S
On to B3, for which the binding entry in assay [1], in assay [2], in assay [6] and in assay [4] was “binds” throughout.

B4: #9108 항체 (antibody, mouse IgG1, V domains shown)
VH: EVQLLESGGGLVQPGGSLRLSCAASGFTFSNYAMSWVRQAPGKGLEWVSAIYPGGGSIYYADSVKGRFTISRDNSKNTLYLQMNSLRAEDTAVYYCARDVLGLTPKPFDYWGQGTLVTVSS
VL: B1 VL with I20L, S23T, N31S, Y33T, S35Y, D52N, K54Q, G77S, N97S, A98G
As to B4, the binding entry in assay [1], in assay [2] and in assay [4] was “binds” in each case.
